Measurements: patent US9987370B2 (priority 2012, dated 2018)

Assay: general procedure: Fmoc solid-phase peptide synthesis; Rink; HBTU/DIEA (automated); HATU/DIEA (manual)

Row | Substance | final HPLC purity (whole synthesis) [%] | conjugation yield (conjugation step) [%] | final HPLC purity (conjugation step) [%]
1 | GVQIVYKK | >99 |  | 
2 | AcCGVQIVYKK (N-acetyl; PXL-buSS conjugate; Sup35 yeast prion fragment) |  | 60 | >98

End groups of sequences in plain letters are not given here.
